Test results taken from PMC9935901, “B-lymphoid tyrosine kinase-mediated FAM83A phosphorylation elevates pancreatic tumorigenesis through interacting with β-catenin” (Signal Transduction and Targeted Therapy, 2023).

Protein sequences, listed by entry. Tags and fused reporters are not part of them. Lines headed by an entry give the natural chain unless they say otherwise; changes in a name come on top.
UniProt P35222: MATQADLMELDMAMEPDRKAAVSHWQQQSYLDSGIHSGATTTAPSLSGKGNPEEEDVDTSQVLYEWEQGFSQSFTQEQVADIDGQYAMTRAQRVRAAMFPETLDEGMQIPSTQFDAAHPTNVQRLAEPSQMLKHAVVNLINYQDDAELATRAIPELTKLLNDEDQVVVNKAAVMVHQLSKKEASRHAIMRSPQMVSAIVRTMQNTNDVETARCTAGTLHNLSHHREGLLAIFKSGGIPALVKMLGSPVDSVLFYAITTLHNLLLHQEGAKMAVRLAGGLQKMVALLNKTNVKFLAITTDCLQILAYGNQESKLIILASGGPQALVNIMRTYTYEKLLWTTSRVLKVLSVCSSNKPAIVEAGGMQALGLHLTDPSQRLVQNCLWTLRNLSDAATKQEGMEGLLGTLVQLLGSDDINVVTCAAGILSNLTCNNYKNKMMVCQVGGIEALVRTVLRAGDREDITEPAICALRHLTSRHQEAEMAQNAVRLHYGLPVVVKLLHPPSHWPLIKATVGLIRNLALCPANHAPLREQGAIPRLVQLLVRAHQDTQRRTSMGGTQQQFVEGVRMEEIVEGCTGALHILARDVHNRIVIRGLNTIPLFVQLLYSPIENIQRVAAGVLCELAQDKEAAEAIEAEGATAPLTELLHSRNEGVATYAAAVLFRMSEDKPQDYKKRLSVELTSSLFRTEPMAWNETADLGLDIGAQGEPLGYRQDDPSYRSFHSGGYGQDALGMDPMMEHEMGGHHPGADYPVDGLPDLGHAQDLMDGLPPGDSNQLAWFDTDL
UniProt Q86UY5: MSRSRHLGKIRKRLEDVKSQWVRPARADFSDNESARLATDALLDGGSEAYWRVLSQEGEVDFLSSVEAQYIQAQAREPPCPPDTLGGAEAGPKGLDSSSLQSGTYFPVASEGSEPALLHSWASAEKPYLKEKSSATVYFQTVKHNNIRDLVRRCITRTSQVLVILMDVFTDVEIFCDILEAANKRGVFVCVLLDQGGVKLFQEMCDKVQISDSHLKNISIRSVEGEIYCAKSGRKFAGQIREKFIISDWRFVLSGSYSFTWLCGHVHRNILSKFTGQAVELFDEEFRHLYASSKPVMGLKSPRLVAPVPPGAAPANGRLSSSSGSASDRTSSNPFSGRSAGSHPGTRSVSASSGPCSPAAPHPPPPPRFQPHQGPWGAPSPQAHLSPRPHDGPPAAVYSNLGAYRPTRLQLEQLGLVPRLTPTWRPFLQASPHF

Molecular target: β-catenin (construct not stated) (UniProt P35222)
Assay: co-IP; HEK293T cells transfected for 48 h, IP and western blotting; with or without BLK, FAM83A wild type, Y138A or Y138D, saracatinib

In the case of “DUF1669 domain of FAM83A (from UniProt Q86UY5) (domain or fragment)”, the binding is reported as “binds”.

No constants are given. Whether binding was seen depends on the method and setting. In cells and extracts the contact can be indirect. Binding calls can cover weak binding; strength is not graded here.
